Laboratory results published in PMC12417194.
No constants are given. Whether binding was seen depends on the method and setting. Binding can be weak; no strength is given.

Biological target: SAUR32 (tomato), fusion from pGBKT7 for yeast two-hybrid (tomato (Solanum lycopersicum L., cv. Tianfei 9)) (UniProt I3RSI1)
Experiment: two-hybrid; yeast AH109 co-transformed with PP2C72-pGADT7 and pGBKT7-SAUR32; 30°C, 3 days; growth and blue colour on SD-Trp-Leu-His-Ade with x-α-gal (methods: SD-Leu-Trp-His)

binding: binds
Substance: PP2C72 (tomato), fusion from pGADT7 for yeast two-hybrid (from UniProt A0A3Q7HQJ8) (enzyme)
